In patent US20240262879A1:
No constants are given. Whether binding was seen depends on the method and setting. Some binding calls cover weakened binding; strength is not graded here.

Chains of the proteins cited; added tags and fusions are not shown. Lines headed by an entry give the natural chain unless they say otherwise; changes in a name come on top.
UniProt P29459: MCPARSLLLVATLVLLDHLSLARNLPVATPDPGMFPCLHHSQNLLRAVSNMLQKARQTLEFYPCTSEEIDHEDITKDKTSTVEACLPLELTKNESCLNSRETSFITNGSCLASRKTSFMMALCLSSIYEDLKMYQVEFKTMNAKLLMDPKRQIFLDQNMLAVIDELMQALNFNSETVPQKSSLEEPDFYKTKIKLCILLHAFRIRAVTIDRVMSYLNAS

Target: Interleukin-12 (IL-12) (human) (UniProt P29459)
Experiment: phage panning of the immune-derived llama VHH library against IL-12

| binding | Binder |
| --- | --- |
| binds | BI-028 (VHH) VHH: EVQLVESGGGLVQTGGSLRLSCAASGLTNGYVMAWFRQAPGKEREFVSGIGWGSSRTYYADSVKGRFTISRDNAINTVALQMNSLKPEDTAVYYCAAQGRISPIYTRANEYPYWGQGTQVTVSS |
| binds | BI-010 (VHH) VHH: QVQLVESGGGSVQVGGSLRLSCVGSGRTLNMYNMGWFRQAPGKEREFVAAISGKGLISDYRDSVKGRFTISRDNARNTMYLQMNSLKPEDTAVYHCAAGQWSAGPFTRERSYEYWGQGTQVTVSS |
| binds | BI-014 (VHH) VHH: EVQLVESGGGSVQVGGSLRLSCVASGRTFNMYVMGWFRQAPGKEREFVAAISGEGLISDYRDSVKGRFTISRDNAKNTMYLQMNSLKPEDTAVYHCAAGQWTNGPFTRERTYEYWGQGTQVTVSS |
| binds | BI-040 (VHH) VHH: EVQLVESGGGSVQVGGFLRLSCVGSGRTLNMYNMGWFRQAPGKEREFVAAISGKGLISDYRDSVKGRFTISRDNARNTMYLQMNSLKPEDTAVYHCAAGQWSAGPFTRERSYEYWGQGTQVTVSS |
| binds | BI-002 (VHH) VHH: EVQLVESGGGLVQPGGSLRLSCAASGFTFSSYYMYWIRQAPGKGLEWVSTIKPNGSGIYGNSVAGRFTISRDNAKNMLYLQMNMLRPEDTALYYCARDVRGTVRGQGTQVTVSS |
| binds | BI-020 (VHH) VHH: EVQLVESGGGLVQPGGSLRLSCVASGSIGSITSMAWYRQGTGKQRELVASISSGGRPSYQDSVKGRFTISRDNAENTVYLQMNSLKPEDTAVYHCNVRGLHLDTGLYESWGQGTQVTVSS |
| binds | BI-018 (VHH) VHH: EVQLVESGGGLVEAGGSLRVSCAASGGTFSEYAMGWIRQAPGKEREFVAGISRGAGRTVYADSVKGRFTISRDNHKNTVYLQMNSLKPEDTAVYYCGADDVSYNRVTTAPGEYDYWGQGIQVTVSS |
| binds | BI-012 (VHH) VHH: QVQLVESGGGLVQPGGSLRLSCAASGRTLSSYTMAWFRQAPGKEREFVATISPVGFIMDYADSVKGRFTISRDNTKNTVYLQMNSLKHEDTALYYCATDLGRKLGTQSREYGYWGQGTQVTVSS |
| binds | BI-025 (VHH) VHH: EVQLVESGGGLVQPGGSLRLSCAASGRTLSSYTMAWFRQAPGKEREFVATISPVGFIMDYADSVKGRFTISRDNTKNTVYLQMNSLKHEDTALYYCATDLGRKLGTQSCEYGYWGQGTQVTVSS |
| binds | BI-035 (VHH) VHH: QVQLVESGGGLVQPGGSLRLSCAASGSIAEIYVMGWYRQAPGKQREIVATTPSSGRTNIADSVKGRFIISRDFVKNTVALQMNSLKPEDTAVYYCYARLTPTSVASWGPGTQVTVSS |
| binds | BI-022 (VHH) VHH: QVQLVESGGGLVQAGGSLRLSCAASGSIFSTLNAIGWYRQAPGKQAELVARITHDGRIVYGDSVKGRFTISRDNAKNTAYLQMNSLNPEDTAVYFCVAPGMVRGQGTQVTVSS |
| binds | BI-030 (VHH) VHH: EVQLVESGGGLVQPGGSLRLSCVASGDIGSMTSTGWYRQAPGKQRDLVASINSGGRPNYQDSVKGRFTISRDSAKNTVYLQMNSLKPEDTAVYYCNLRGLVLSTGLYESWGQGTQVTVSS |
| binds | BI-016 (VHH) VHH: EVQLVESGGGLVQPGGSLRLSCAASGRTFSSRAMGWFRQAPGKEREFVAAISFGGGTIRYADSVKGRFTISRDDAKNTVYLQMNSLKPEDTAVYYCAARRLHIATLAADFDSWGQGTQVTVSS |
| binds | BI-036 (VHH) VHH: EVQLVESGGGSVQAGGSLRLSCATSGRGFSTYAMGWFRQAPGKEREFVAAISFGGGTVRYVDSVKGRFTISRDDAKGTVYLQMNSLKPEDTAVYYCAARRLHIATLAADFGSWGQGTQVTVSS |
| binds | BI-042 (VHH) VHH: EVQLVESGGGSVQAGGSLRLSCAASGRTFNTKAIGWFRQAPGKEREFVAAISWGGGTIRYADSVKGRVTISRDDAKNTVYLQMNSLKPEDTAVYYCAARQLHIATLAADFDSWGQGTQVTVSS |
| binds | BI-027 (VHH) VHH: QVQLVESGGGSVQAGGSLRLSCAASGRTFSSRAMGWFRQAPGKEREFVAAISFGGGTIRYADSVKGRFTISRDDAKNTVYLQMNSLKPEDTAVYYCAARRLHIATLAADFDSWGQGTQVTVSS |
| binds | BI-029 (VHH) VHH: QVQLVESGGGLVQPGGSLRLSCAASGFTFSSYGMSWYRQAPGKEHELVAGISAGSTKYADSVKGRFTISRDNAKKTVYLQMNSLKPEDTAVYYCSRWPRLFEDWGQGTQVTVSS |

| binding | Binder |
| --- | --- |
| binds | BI-009 (VHH) VHH: EVQLVESGGGLVHPGGSLRLSCVASGFRFTPYTMGWYRQAPGKQRELVASISSVYSTNYADSVKGRFTVSRDNVKGTVSLQMNSLKPEDTAVYYCNAPGLLHEEGTDYWGQGTQVTVSS |
| binds | BI-011 (VHH) VHH: EVQLVESGGGLVQAGGSLRLSCAASGRTFSRWTMAWFRQAPGKERDFVAAVGWWNDSTYYADSVKGRFTISRDNNENTLYLQMNSLKPEDTAVYICASTEKYGLGQPNPRRYDYWGQGTQVTVSS |
| binds | BI-033 (VHH) VHH: EVQLVESGGGLVQAGGSLRLSCAASGRTFSAYVMGWFRQTPGKGREFVAAISTGGQISDYANSVKGRFTISRDNAKNTAYLQMNNLKPEDTAVYYCAANRENFLNRGAGDYEYWGQGTQVTVSS |
| binds | BI-017 (VHH) VHH: EVQLVESGGGLVQAGGSLRLSCSASGRSLNDYIVGWFRQAPGKERELVAAISSGGYIQHYIDSVKGRFTISRDNAKNTVYLQMNGLKPEDTAVYYCAANQLNGVARKKIESDDYDYWGQGTQVTVSS |
| binds | BI-023 (VHH) VHH: QVQLVESGGGLVQAGDSLRLSCTASGRTLTLSMVTVGWFRQGSGKEREFVAAISWRGGRSYVADDVKGRFTISRDNARNTVYLQMNSVKPEDTAVYYCAAREAIQDLAWTANDFTYWGQGTQVTVSS |
| binds | BI-038 (VHH) VHH: EVQLVESGGGLVQAGDSLRLSCTASGRTLTLSMVTVGWFRQGSGKEREFVAAISWRGGRSSVADDVKGRFTISRDNARNTVYLQMNSVKPEDTAVYYCAARTAIQDLAWTANDFTYWGQGTQVTVSS |
| binds | BI-021 (VHH) VHH: EVQLVESGGGLVQPGGSLRLSCASPGSISTLYVMGWYRQAPGKQRDLVARITRGGSTSYANSVKGRFTISRDNVNNTINLQMNSLKPEDTAVYYCYAQTAVGPDYWGQGTQVTVSS |
| binds | BI-031 (VHH) VHH: QVQLVESGGGLVQPGGSLRLSCAAPGSIATLYVMGWYRQAPGKQRELVARITRGGSTSYANAVKGRFTISRDNAKNTVNLQMNSLKPEDTAIYYCNAQTAVGPDYWGQGTQVTVSS |
| binds | BI-001 (VHH) VHH: QVQLVESGGGLVQPGGSLRLSCAASGREFTSVSMAWFRQRPGKEREFVAFSARISETTEYADFVKGRFTIWRDNANAKVTVYLQMNNLKPEDTGVYYCAASEGPATIRQNTYPDWGQGTQVTVSS |
| binds | BI-026 (VHH) VHH: EVQLVESGGGLVQPGGSLRLSCVASGSTGSITSMAWYRQAPGKQRELVASINSGGRPNYQESVKGRFTISRDNAENTLYLQMNSLSPEDTAVYLCNLRGLRLDTGLYESWGQGTQVTVSS |
| binds | BI-034 (VHH) VHH: QVQLVESGGGLVQPGGSLRLSCVASGSTGSITSMAWYRQAPGKQRELVASINSGGRPNYQESVKGRFTISRDNAENTLYLQMNSLSPEDTAVYLCNLRGLRLDTGLYESWGQGTQVTVSS |
| binds | BI-003 (VHH) VHH: QVQLVESGGGLVQPGGSLRLSCAASGNQLSLYNMGWYRQAPGKQRELVASISRAGRSSYGDSVKGRFTISRDNAKNTVYLQMSSLKPEDTAVYYCKASFLDDYWGQGTQVTVSS |
| binds | BI-013 (VHH) VHH: EVQLVESGGGLVQAGGSLRLSCAASGRTFSTYAVGWFRQAPGKEREFVAAISWGGGTVRYADSVKGRSTISRDDAKNTVYLQMNSLKPEDTAIYYCAARVLHIATKAVDFGSWGQGTQVTVSS |
| binds | BI-015 (VHH) VHH: EVQLVESGGGLVQPGGSLRLSCAASGRDFDRSTMAWYRQAPGKQRELVASIPSDIGTKYADSVKGRFFISRVYAKNTNTVYLQMNSLKPEDTAVYYCYAHIDSDYWGQGTQVTVSS |
| binds | BI-019 (VHH) VHH: EVQLVESGGGAVQAGGALKLSCAYSGRAFSRSLMGWFRQAPGKEREFVAAISWVSVTPDYGDSVKGRFTISRDNAKSTVTLQMNSLKPEDTAVYYCAASERYGTPRRRPNDYDYWGQGTQVTVSS |
| binds | BI-037 (VHH) VHH: EVQLVESGGGLVQAGDSLRLSCAASGRTFSTYVMGWFRQAPGKEREFVAYISTGGLISDHADSVKGRFTISRDNAKNTVYLQMNSLRPEDTAVYYCAAASRTRRPIATIKDEYDYWGQGTQVTVSS |
| binds | BI-039 (VHH) VHH: QVQLVESGGGLVQAGGSLRLSCAASGRTFETIAMGWFRQVPGKEREFVAVIRGSGVATYYPDSVKGRFTISKDSAKNTVYLQMNNLKPEDTAVYYCAATTNRFKNTDYTTYDYWGQGTQVTVSS |
